Data taken from patent publication US8263133B2 (The Regents of the University of California, priority 2009, dated 2012).
Where no end group is shown, it is not given here.

Experiment: peptide made by a vendor
Settings: whole synthesis

Substance: CCVVVT-OH (cysteine pairing not given here)
- purity (crude or final not stated): 98.5%
